Experimental data: publication PMC9065108
Results are given in words; binding and its absence hold for the method and conditions named. In cells and extracts the contact can be indirect. Some results given as binding are weak or reduced against the parent protein; the word gives no strength.

Biological target: ferritin heavy chain (FTH), endogenous in U2OS cells (human (endogenous in U2OS)) (UniProt P02794)
Test: co-IP; lysates of U2OS cells (untreated or treated with OSMI-1 or TMG for 24 h; OGT or OGA knock-down), IP lysis buffer (20 mM Tris-HCl, 150 mM NaCl, 1% NP-40, pH 7.5), antibodies against NCOA4, FTH or OGT and IgG with Protein A/G beads, 4 °C for 4 h, immunoblot

B1: O-GlcNAc transferase (OGT), endogenous in U2OS cells (enzyme, UniProt O15294 1-1046)
chain: MASSVGNVADSTEPTKRMLSFQGLAELAHREYQAGDFEAAERHCMQLWRQEPDNTGVLLLLSSIHFQCRRLDRSAHFSTLAIKQNPLLAEAYSNLGNVYKERGQLQEAIEHYRHALRLKPDFIDGYINLAAALVAAGDMEGAVQAYVSALQYNPDLYCVRSDLGNLLKALGRLEEAKACYLKAIETQPNFAVAWSNLGCVFNAQGEIWLAIHHFEKAVTLDPNFLDAYINLGNVLKEARIFDRAVAAYLRALSLSPNHAVVHGNLACVYYEQGLIDLAIDTYRRAIELQPHFPDAYCNLANALKEKGSVAEAEDCYNTALRLCPTHADSLNNLANIKREQGNIEEAVRLYRKALEVFPEFAAAHSNLASVLQQQGKLQEALMHYKEAIRISPTFADAYSNMGNTLKEMQDVQGALQCYTRAIQINPAFADAHSNLASIHKDSGNIPEAIASYRTALKLKPDFPDAYCNLAHCLQIVCDWTDYDERMKKLVSIVADQLEKNRLPSVHPHHSMLYPLSHGFRKAIAERHGNLCLDKINVLHKPPYEHPKDLKLSDGRLRVGYVSSDFGNHPTSHLMQSIPGMHNPDKFEVFCYALSPDDGTNFRVKVMAEANHFIDLSQIPCNGKAADRIHQDGIHILVNMNGYTKGARNELFALRPAPIQAMWLGYPGTSGALFMDYIITDQETSPAEVAEQYSEKLAYMPHTFFIGDHANMFPHLKKKAVIDFKSNGHIYDNRIVLNGIDLKAFLDSLPDVKIVKMKCPDGGDNADSSNTALNMPVIPMNTIAEAVIEMINRGQIQITINGFSISNGLATTQINNKAATGEEVPRTIIVTTRSQYGLPEDAIVYCNFNQLYKIDPSTLQMWANILKRVPNSVLWLLRFPAVGEPNIQQYAQNMGLPQNRIIFSPVAPKEEHVRRGQLADVCLDTPLCNGHTTGMDVLWAGTPMVTMPGETLASRVAASQLTCLGCLELIAKNRQEYEDIAVKLGTDLEYLKKVRGKVWKQRISSPLFNTKQYTMELERLYLQMWEHYAAGNKPDHMIKPVEVTESA
In the case of B1, the binding is reported as “binds”.
